Measured values reported in PubChem BioAssay AID504834 (National Center for Advancing Translational Sciences (NCATS), 2011).
The campaign covered roughly 320,000 compounds. About 22,000 (6.9%) were called active. Inconclusive means that the source gave no clear call. Such entries were picked first, then a sample of the others. Calls follow the shape of the dose curve; as a rule, active = well fitted inhibition curve with a large enough effect; inconclusive = small, poorly fitted or top-dose-only effect, or another doubt; inactive = no such curve, though single readings can be large or run the other way. A potency beside an inconclusive call is a rough fit, not a confirmed value.

Test: Primary qHTS for delayed death inhibitors of the malarial parasite plastid, 96 hour incubation
Conditions: P. falciparum luciferase reporter growth; series mostly up to 28.7 µM
Summary of the method: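 Luminescence readout: decreased luciferase signal marks inhibited growth of reporter-expressing P. falciparum in infected red cells (2% hematocrit, 0.05% parasitemia final), exposed to compound two generations (96 h, 37 C, 5% CO2).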
Potency is read from the fitted curve at half-maximal effect.

Row | SMILES | Potency
1 | S=C(NCCc1ccccc1)Nc1ccccc1 | inconclusive: 20.8 µM [inhibitor, single point]
2 | Nc1c(S(=O)(=O)c2ccccc2)c2nc3ccccc3nc2n1CCN1CCOCC1 | inconclusive: 18.5 µM [inhibitor, single point]
3 | Cc1ccc(N/C(N)=N/c2nc(C)cc(N3CCCCC3)n2)c(C)c1 | inconclusive: 10.4 µM [inhibitor, partial curve]
4 | COc1ccc(-c2cc(C(=O)Nc3c(C)n(C)n(-c4ccccc4)c3=O)c3ccccc3n2)c(OC)c1 | active: 14.7 µM
5 | Cc1ccc(NC(=S)NCC(C)C)cc1 | inactive
6 | COc1ccc(S(=O)(=O)N2CCC(C(=O)NCc3ccco3)CC2)cc1C | active: 5.22 µM
7 | Cc1c(C(=O)N2CCCC2)sc(NC(=O)c2cccs2)c1C#N | inconclusive: 5.86 µM [inhibitor, partial curve, poor fit]
8 | Cc1ncoc1C(=O)NC1CC(C)(C)Cc2c1cnn2-c1ccccc1 (stereo not given) | inconclusive: 18.5 µM [inhibitor, single point]
9 | CCN(C(=O)c1cc2ccccc2oc1=O)c1cccc(C)c1 | inconclusive: 20.8 µM [inhibitor, single point]
10 | Cc1cccc(-n2c(Cc3ccccc3)nnc2SCc2ccc([N+](=O)[O-])cc2)c1 | active: 7.38 µM
11 | OC1(c2ccccc2)c2ccccc2-c2ncccc21 (stereo not given) | inconclusive: 0.0828 µM [inhibitor, full curve, poor fit]
12 | Cc1ccccc1[C@@H]1C(C#N)=C(N)S[C@H]1C(=O)c1ccccc1 | inactive
13 | O=C(C1CCN(C2CCN(Cc3ccsc3)CC2)CC1)N1CCOCC1 | inconclusive: 9.28 µM [inhibitor, single point]
14 | O=C(C1=C[C@@H](c2ccc(Br)cc2)C[C@@H](OCCCCO)O1)N1CCN(Cc2ccc3c(c2)OCO3)CC1 | active: 4.15 µM
15 | O=C(CN1CCC(C(=O)c2ccc(F)cc2)CC1)Nc1ccccc1 | inconclusive: 13.1 µM [inhibitor, single point]
16 | O=C(COc1ccc(C(=S)N2CCCC2)cc1)Nc1ccccc1C(F)(F)F | inconclusive: 18.5 µM [inhibitor, single point]
17 | C=CCOc1ccccc1CNCCNC(=O)c1nonc1N | inactive
18 | OC(CN1CCCCCC1)CN(c1ccccc1)c1ccccc1 (stereo not given) | inactive
19 | CC1CCC(Nc2nnnn2-c2ccccc2)CC1 (stereo not given) | inconclusive: 11.7 µM [inhibitor, single point]
20 | Cc1cc(C)c(S(N)(=O)=O)c(C)c1N(C)S(=O)(=O)c1ccccc1 | inconclusive: 5.86 µM [inhibitor, partial curve]

2 of the compounds above, with tabs.
Row	SMILES	Potency
3	Cc1ccc(N/C(N)=N/c2nc(C)cc(N3CCCCC3)n2)c(C)c1	inconclusive: 10.4 µM [inhibitor, partial curve]
4	COc1ccc(-c2cc(C(=O)Nc3c(C)n(C)n(-c4ccccc4)c3=O)c3ccccc3n2)c(OC)c1	active: 14.7 µM
